In publication PMC6199744, “Development of Chemical Proteomics for the Folateome and Analysis of the Kinetoplastid Folateome” (ACS Infectious Diseases, 2018):
The source gives many values for each of these; only a part stands here.

Tested on: L. major lysate proteins
Test: Multitargeted bead mixture chemoproteomics, single concentration competition, proteome-wide
Format: binding
Conditions: for fold change: vehicle control = 1

SMILES: Nc1nc2[nH]cc(CCc3ccc(C(=O)N[C@@H](CCC(=O)O)C(=O)O)cc3)c2c(=O)[nH]1 [PTX, pemetrexed]
- fold change (protein LINJ.01.0790 […] 4A, PUTATIVE): 0.95
- fold change (protein LINJ.03.0940 HY[…], CONSERVED): 0.88
- fold change (protein LINJ.05.0070 DYNEIN LIGHT CHAIN, PUTATIVE): 0.98
- fold change (protein LINJ.07.0210 CYTOCHROME C1, HEME PROTEIN, MIT[…], PUTATIVE): 0.82
- fold change (protein LINJ.09.0030 HY[…], CONSERVED): 0.94
- fold change (protein LINJ.13.1460 ALPHA TUBULIN): 0.99
- fold change (protein LINJ.15.0090 HEAT SHOCK PROTEIN HSLVU, ATPASE SUBUNIT HSLU, PUTATIVE): 1.07
- fold change (protein LINJ.19.0140 PROTEIN KINASE, PUTATIVE,MITOGEN-ACTIVATED PROTEIN KINASE, PUTATIVE): 0.81
- fold change (protein LINJ.19.0300 RNA BINDING PROTEIN): 0.87
- fold change (protein LINJ.21.0900 HY[…], CONSERVED): 0.88
- fold change (protein LINJ.25.1460 GTP-BINDING PROTEIN, PUTATIVE): 0.94
- fold change (protein LINJ.25.2170 HY[…], CONSERVED): 0.86
- fold change (protein LINJ.26.0840 40S RIBOSOMAL PROTEIN S16, PUTATIVE): 1.06
- fold change (protein LINJ.26.1080 HY[…], CONSERVED): 0.93
- fold change (protein LINJ.27.1150 T-COMPLEX PROTEIN 1, BETA SUBUNIT, PUTATIVE): 1.03
- fold change (protein LINJ.28.1310 GLUCOSE-REGULATED PROTEIN 78, PUTATIVE): 0.97
- fold change (protein LINJ.29.0110 HY[…], CONSERVED): 0.96
- fold change (protein LINJ.29.0770 P[…] SIGNAL TYPE 2 RECEPTOR, PUTATIVE): 0.93
- fold change (protein LINJ.32.2960 […]-ATP-ASE SUBUNIT, PUTATIVE): 0.98
- fold change (protein LINJ.32.3230 PROTEIN PHOSPHATASE 2A CATALYTIC SUBUNIT, PUTATIVE): 0.98
- fold change (protein LINJ.33.0350 HEAT SHOCK PROTEIN 83-1): 1.05
- fold change (protein LINJ.36.2140 CHAPERONIN HSP60, MIT[…]): 1
- fold change (protein LINJ.36.7350 CYTOCHROME C OXIDASE SUBUNIT I): 1.01
- fold change (protein LMJF.02.0450 VOLTAGE-DEPENDENT ANION-SELECTIVE CHANNEL, PUTATIVE): 1.02
- fold change (protein LMJF.02.0460 HY[…], CONSERVED): 0.97
- fold change (protein LMJF.03.0630 HY[…], CONSERVED): 1.02
- fold change (protein LMJF.05.0030 RAS-LIKE SMALL GTPASES, PUTATIVE): 1.05
- fold change (protein LMJF.06.0140 […] 6 SUBUNIT, PUTATIVE): 0.84
- fold change (protein LMJF.06.0880 ACYL-COENZYME A DEHYDROGENASE, PUTATIVE): 0.99
- fold change (protein LMJF.07.0270 ACETYLORNITHINE DEACETYLASE-LIKE PROTEIN): 0.97
- fold change (protein LMJF.07.0340 ATP-DEPENDENT DEAD/H RNA HELICASE, PUTATIVE): 1.14
- fold change (protein LMJF.07.0640 HY[…], CONSERVED): 0.95
- fold change (protein LMJF.07.1050 CATION-TR[…], PUTATIVE): 0.89
- fold change (protein LMJF.08.1110 STRESS-INDUCED PROTEIN STI1): 0.96
- fold change (protein LMJF.09.0970 […]-1 GAMMA): 1.02
- fold change (protein LMJF.10.1010 NUCLEOSIDE PHOSPHORYLASE-LIKE PROTEIN): 1.18
- fold change vs vehicle control (protein LMJF.10.1240 HY[…], CONSERVED): 0.89
- fold change (protein LMJF.11.0220 PTERIN-4-ALPHA-CARBINOLAMINE DEHYDRATASE, PUTATIVE): 0.92
- fold change (protein LMJF.11.0240 […] 7 SUBUNIT, PUTATIVE): 0.94
- fold change (protein LMJF.11.0350 14-3-3 PROTEIN, PUTATIVE): 0.94
- fold change (protein LMJF.11.0550 NUCLEOBASE TRANSPORTER): 1.1
- fold change (protein LMJF.11.1000 PYRUVATE PHOSPHATE DIKINASE, PUTATIVE): 1.01
- fold change (protein LMJF.12.0280 ORNITHINE DECARBOXYLASE, PUTATIVE): 0.94
- fold change (protein LMJF.12.0670 CYTOCHROME C OXIDASE SUBUNIT IV): 0.99
- fold change (protein LMJF.12.1130 NADH:FLAVIN OXIDOREDUCTASE/NADH OXIDASE, PUTATIVE): 0.92
- fold change (protein LMJF.12.1270 ARGININE N-METHYLTRANSFERASE-LIKE PROTEIN): 0.84
- fold change vs vehicle control (protein LMJF.13.0450 HY[…], CONSERVED): 0.91
- fold change (protein LMJF.13.0570 40S RIBOSOMAL PROTEIN S12, PUTATIVE): 0.92
- fold change (protein LMJF.13.0870 MIT[…] ALPHA SUBUNIT, PUTATIVE): 1.03
- fold change (protein LMJF.13.1190 ADENYL[…], PUTATIVE): 0.86
- fold change (protein LMJF.13.1660 CHAPERONIN TCP20, PUTATIVE): 1.03
- fold change (protein LMJF.14.0190 HY[…], CONSERVED): 1.05
- fold change (protein LMJF.14.0460 CYS[…]-LYASE-LIKE PROTEIN): 1.01
- fold change (protein LMJF.14.0650 FATTY ACID ELONGASE, PUTATIVE): 0.94
- fold change (protein LMJF.15.0230 LYSYL-TRNA SYNTHETASE, PUTATIVE): 0.97
- fold change (protein LMJF.15.1160 TR[…]): 0.95
- fold change (protein LMJF.15.1440 GLUTAMINYL-TRNA SYNTHETASE, PUTATIVE): 0.94
- fold change (protein LMJF.16.0960 HY[…], CONSERVED (methyltransferase domain containing protein, putative)): 1.19
- fold change vs vehicle control (protein LMJF.16.1427 PAR[…] PROTEIN 2C): 0.94
- fold change (protein LMJF.17.0980 HY[…], CONSERVED (Mak10 subunit, NatC N(alpha)-terminal acetyltransferase, putative)): 1.03
- fold change (protein LMJF.18.0450 SERINE CARBOXYPEPTIDASE (CBP1), PUTATIVE): 0.93
- fold change (protein LMJF.18.0510 ACONITASE, PUTATIVE): 1.03
- fold change (protein LMJF.18.0740 […] TU, PUTATIVE): 0.98
- fold change (protein LMJF.18.1380 PYRUVATE DEHYDROGENASE E1 COMPONENT ALPHA SUBUNIT, PUTATIVE): 0.99
